Measurements published in the supplement of paper PMC10849652.
Some of the results follow.

Chains of the proteins cited; added tags and fusions are not shown. Lines headed by an entry give the natural chain unless they say otherwise; changes in a name come on top.
UniProt Q04206, whole entry, looked up: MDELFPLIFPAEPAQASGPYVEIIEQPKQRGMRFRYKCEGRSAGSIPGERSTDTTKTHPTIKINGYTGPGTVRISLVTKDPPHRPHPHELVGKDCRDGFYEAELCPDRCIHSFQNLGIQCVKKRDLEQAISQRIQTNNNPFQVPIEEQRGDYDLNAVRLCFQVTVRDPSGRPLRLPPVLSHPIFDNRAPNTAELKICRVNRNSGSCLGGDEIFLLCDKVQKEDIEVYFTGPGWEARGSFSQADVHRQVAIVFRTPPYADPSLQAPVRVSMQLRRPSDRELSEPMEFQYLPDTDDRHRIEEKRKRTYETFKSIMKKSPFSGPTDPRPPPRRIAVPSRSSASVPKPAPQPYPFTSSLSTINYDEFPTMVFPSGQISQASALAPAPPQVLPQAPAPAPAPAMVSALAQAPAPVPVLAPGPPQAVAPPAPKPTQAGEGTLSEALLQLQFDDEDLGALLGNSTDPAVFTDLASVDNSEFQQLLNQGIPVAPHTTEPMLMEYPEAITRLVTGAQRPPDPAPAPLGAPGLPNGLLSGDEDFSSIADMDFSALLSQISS
UniProt P78332: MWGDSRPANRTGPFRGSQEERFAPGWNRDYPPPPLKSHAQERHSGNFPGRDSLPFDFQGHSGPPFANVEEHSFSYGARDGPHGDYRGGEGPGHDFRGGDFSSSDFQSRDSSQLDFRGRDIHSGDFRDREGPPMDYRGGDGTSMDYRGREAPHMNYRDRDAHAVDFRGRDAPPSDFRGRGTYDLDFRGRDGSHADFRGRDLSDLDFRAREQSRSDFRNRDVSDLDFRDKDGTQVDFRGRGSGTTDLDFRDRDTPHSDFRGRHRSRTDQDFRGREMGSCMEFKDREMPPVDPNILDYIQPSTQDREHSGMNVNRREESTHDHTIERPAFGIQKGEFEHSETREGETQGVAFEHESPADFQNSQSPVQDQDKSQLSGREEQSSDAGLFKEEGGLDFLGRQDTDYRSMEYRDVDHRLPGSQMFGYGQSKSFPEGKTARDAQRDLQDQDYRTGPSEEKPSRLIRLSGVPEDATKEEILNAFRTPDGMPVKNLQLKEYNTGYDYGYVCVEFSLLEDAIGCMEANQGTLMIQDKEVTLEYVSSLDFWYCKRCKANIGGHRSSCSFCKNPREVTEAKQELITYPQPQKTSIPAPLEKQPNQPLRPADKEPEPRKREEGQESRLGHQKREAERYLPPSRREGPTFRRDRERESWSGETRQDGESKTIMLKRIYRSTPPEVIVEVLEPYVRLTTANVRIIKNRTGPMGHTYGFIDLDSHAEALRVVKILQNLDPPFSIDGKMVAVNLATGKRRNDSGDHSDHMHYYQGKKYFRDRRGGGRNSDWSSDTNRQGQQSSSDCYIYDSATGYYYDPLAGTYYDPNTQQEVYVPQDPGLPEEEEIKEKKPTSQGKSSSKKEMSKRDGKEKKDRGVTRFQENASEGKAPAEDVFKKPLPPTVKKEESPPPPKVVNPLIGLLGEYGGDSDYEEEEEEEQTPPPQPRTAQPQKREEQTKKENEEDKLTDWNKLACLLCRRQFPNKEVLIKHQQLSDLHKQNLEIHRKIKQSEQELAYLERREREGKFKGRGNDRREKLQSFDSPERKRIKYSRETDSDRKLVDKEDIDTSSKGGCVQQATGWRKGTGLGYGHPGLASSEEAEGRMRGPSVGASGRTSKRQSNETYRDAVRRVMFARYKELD
UniProt P40938, whole entry, looked up: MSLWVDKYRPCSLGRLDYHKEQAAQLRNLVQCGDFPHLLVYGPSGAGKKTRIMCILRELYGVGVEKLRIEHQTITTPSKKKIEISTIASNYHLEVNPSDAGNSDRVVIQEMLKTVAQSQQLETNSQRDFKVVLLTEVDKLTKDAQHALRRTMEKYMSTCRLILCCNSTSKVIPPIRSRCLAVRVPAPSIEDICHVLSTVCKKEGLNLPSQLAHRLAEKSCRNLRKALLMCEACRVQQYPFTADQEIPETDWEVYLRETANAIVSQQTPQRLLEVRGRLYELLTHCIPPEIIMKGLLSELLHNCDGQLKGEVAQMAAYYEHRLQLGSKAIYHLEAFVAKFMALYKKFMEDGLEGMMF
UniProt Q5RL73: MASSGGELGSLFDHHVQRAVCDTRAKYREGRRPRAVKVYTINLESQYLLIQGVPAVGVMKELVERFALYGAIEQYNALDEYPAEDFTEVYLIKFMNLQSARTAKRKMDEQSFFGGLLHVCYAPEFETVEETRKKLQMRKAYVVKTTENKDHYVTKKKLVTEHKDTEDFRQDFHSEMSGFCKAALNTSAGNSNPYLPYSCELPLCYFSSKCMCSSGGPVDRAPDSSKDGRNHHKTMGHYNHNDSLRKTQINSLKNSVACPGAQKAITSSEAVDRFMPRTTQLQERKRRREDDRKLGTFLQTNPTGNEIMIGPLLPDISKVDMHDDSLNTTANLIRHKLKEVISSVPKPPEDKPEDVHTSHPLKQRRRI
UniProt P48382: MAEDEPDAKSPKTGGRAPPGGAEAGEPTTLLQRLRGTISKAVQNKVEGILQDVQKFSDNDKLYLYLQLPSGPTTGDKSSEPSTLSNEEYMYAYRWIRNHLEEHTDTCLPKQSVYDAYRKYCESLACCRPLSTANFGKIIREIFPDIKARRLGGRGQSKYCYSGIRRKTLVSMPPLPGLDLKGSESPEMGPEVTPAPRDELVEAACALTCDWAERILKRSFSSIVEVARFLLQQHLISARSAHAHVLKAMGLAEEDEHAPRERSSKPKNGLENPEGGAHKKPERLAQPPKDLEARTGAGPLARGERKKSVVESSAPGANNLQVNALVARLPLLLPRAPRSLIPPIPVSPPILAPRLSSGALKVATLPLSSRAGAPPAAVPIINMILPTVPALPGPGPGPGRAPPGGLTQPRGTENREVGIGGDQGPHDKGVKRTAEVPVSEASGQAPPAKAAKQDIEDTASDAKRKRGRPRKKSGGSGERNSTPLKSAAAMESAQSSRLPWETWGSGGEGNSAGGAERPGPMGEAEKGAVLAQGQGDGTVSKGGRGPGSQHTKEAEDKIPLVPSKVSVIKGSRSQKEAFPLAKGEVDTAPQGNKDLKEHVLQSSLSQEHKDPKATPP
UniProt Q9H6H4: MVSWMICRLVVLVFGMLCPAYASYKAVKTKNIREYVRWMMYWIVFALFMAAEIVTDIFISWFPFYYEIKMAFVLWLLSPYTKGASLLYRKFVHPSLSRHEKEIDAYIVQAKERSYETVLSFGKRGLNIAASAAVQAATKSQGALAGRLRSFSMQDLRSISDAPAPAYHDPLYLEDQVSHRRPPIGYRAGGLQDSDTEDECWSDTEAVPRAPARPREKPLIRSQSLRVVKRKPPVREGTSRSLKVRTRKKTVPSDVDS
UniProt Q8NBN7: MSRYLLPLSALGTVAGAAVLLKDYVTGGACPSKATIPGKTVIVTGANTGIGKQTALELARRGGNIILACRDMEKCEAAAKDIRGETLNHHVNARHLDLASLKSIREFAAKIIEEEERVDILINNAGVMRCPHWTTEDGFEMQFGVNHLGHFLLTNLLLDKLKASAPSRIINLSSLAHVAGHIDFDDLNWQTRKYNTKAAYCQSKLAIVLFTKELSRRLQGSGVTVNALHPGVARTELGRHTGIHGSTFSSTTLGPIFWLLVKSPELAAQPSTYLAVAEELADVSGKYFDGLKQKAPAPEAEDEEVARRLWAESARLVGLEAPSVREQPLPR
UniProt Q8IZV5: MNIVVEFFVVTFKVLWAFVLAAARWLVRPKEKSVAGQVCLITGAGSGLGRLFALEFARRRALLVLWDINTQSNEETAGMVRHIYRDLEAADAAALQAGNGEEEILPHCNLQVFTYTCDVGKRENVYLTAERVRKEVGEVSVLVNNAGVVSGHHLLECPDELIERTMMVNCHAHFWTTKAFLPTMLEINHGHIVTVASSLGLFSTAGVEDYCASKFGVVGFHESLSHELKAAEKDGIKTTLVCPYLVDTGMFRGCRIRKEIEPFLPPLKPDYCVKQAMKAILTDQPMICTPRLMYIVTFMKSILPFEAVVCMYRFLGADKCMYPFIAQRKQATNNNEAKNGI
UniProt P18754: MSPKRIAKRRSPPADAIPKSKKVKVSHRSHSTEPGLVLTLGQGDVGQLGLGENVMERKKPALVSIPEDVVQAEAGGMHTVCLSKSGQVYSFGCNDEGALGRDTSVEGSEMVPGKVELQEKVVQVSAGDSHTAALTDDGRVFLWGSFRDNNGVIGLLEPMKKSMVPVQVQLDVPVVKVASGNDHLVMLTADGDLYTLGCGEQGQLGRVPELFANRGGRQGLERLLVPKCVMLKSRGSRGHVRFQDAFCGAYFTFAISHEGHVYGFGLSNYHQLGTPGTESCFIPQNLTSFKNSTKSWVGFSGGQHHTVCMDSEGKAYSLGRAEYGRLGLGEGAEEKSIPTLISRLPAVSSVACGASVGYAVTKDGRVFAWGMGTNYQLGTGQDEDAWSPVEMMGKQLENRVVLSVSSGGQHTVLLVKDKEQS
UniProt Q96DM3: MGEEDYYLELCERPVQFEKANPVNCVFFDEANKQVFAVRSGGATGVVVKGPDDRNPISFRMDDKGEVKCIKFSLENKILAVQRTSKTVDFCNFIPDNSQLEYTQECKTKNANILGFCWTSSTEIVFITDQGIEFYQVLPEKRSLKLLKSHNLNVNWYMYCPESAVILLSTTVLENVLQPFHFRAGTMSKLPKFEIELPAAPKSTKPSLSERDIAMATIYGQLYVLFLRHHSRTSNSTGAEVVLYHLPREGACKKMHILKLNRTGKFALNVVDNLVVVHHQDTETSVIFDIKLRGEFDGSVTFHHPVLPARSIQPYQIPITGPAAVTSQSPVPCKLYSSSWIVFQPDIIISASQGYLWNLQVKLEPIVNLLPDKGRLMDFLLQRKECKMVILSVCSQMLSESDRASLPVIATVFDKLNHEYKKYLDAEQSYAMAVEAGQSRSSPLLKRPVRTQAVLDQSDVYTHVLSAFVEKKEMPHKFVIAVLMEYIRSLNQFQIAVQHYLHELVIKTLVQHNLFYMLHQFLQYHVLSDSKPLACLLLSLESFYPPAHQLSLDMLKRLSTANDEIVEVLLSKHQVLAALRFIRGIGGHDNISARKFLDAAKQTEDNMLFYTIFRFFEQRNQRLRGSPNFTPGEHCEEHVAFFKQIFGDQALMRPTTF
UniProt Q9Y256: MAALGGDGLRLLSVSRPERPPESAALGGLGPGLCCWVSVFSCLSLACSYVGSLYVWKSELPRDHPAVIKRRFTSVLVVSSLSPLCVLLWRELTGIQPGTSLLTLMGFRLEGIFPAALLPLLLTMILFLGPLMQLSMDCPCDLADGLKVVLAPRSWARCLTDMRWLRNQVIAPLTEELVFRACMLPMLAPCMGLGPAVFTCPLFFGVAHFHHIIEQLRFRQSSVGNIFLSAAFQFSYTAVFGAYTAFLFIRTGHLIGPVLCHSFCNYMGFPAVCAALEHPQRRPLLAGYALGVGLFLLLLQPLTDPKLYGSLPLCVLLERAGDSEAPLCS
UniProt P35251: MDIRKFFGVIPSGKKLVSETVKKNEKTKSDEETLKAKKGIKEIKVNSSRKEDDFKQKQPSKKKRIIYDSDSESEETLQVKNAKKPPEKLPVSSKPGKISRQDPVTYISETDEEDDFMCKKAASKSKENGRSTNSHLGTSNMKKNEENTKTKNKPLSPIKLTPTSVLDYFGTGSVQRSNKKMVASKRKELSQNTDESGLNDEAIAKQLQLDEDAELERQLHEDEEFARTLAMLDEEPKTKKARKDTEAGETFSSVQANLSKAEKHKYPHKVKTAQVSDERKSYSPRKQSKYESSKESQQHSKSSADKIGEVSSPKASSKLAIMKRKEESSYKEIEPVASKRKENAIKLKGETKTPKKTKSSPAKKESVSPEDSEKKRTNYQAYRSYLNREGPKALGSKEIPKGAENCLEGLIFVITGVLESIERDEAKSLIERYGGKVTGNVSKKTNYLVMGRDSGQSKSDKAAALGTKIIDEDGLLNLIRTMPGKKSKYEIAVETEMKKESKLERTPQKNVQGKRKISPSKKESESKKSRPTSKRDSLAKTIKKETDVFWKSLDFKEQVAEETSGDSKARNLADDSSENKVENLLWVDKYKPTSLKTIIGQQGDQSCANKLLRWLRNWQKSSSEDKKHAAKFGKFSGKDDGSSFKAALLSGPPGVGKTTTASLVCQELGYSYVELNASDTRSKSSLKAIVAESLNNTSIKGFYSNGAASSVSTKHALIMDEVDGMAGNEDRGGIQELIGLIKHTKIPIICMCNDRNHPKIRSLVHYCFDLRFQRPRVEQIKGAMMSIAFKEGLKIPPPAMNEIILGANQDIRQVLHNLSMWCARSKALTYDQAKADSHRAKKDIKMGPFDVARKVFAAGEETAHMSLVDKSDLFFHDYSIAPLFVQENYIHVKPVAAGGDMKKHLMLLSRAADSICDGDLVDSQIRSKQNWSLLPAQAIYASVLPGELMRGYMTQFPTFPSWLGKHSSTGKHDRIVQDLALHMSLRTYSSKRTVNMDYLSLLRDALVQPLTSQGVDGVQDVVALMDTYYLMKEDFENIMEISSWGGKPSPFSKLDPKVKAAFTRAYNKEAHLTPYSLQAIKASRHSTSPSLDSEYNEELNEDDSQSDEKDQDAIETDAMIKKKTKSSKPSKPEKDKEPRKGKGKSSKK

Key:
Assay in all cases: log2 fold change, soluble protein after heating vs DMSO (PISA); higher = thermal stabilisation; K562 cells, 10 uM, 30 min; active = over 0.2 and 3.5 SD of the protein, either way, in both replicates (recomputed)
[1] = compound: CS(=O)(=O)c1ccc(-c2cnc(N)c(C(=O)Nc3ccccc3)n2)cc1
In short: (§1)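 K562 cells at 2×10^6 cells/mL were given 10 μM compound for 30 min. Aliquots then went through 3 min of heating across 48°C-58°C, were pooled, and were extracted in PBS with 0.5% NP-40 at 4°C, and the supernatant after 21,000xg for 90 min was quantified by TMTpro 16plex LC-MS/MS with channel sums equalised. Thermal stability relative to control samples, from duplicates, is given as log2 fold change.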

crizotinib = compound: C[C@@H](Oc1cc(-c2cnn(C3CCNCC3)c2)cnc1N)c1c(Cl)ccc(F)c1Cl [crizotinib]
In short: as §1

[2] = compound: C[C@@H]1COCCN1C2=NC(=NC(=C2)C3(CC3)S(=O)(=O)C)C4=C5C=CNC5=CC=C4
In short: as §1

[3] = compound: C[C@H](C1=CC=C(C=C1)C(=O)NC2=C3C=CNC3=NC=C2)N
In short: as §1

gandotinib = compound: Cc1cc(Nc2cc(CN3CCOCC3)c3nc(C)c(Cc4ccc(Cl)cc4F)n3n2)n[nH]1 [gandotinib]
In short: as §1

[4] = compound: Cc1cc(SCc2sc(-c3ccc(C(F)(F)F)cc3)nc2C)ccc1OCC(=O)O
In short: as §1

ispinesib = compound: Cc1ccc(C(=O)N(CCCN)[C@@H](c2nc3cc(Cl)ccc3c(=O)n2Cc2ccccc2)C(C)C)cc1 [ispinesib]
In short: as §1

doramapimod = compound: Cc1ccc(-n2nc(C(C)(C)C)cc2NC(=O)Nc2ccc(OCCN3CCOCC3)c3ccccc23)cc1 [doramapimod]
In short: as §1

duvelisib = compound: C[C@H](Nc1ncnc2nc[nH]c12)c1cc2cccc(Cl)c2c(=O)n1-c1ccccc1 [duvelisib]
In short: as §1

tozasertib = compound: Cc1cc(Nc2cc(N3CCN(C)CC3)nc(Sc3ccc(NC(=O)C4CC4)cc3)n2)n[nH]1 [tozasertib]
In short: as §1

Target	log2 fold change [1]	log2 fold change (crizotinib)	log2 fold change [2]	log2 fold change [3]	log2 fold change (gandotinib)	log2 fold change [4]	log2 fold change (ispinesib)	log2 fold change (doramapimod)	log2 fold change (duvelisib)	log2 fold change (tozasertib)
RELA (UniProt Q04206)	inactive: 0.03	inactive: 0.036	inactive: 0.005	inactive: -0.029	inactive: -0.086	inactive: 0.055	inactive: 0.017	–	–	–
RIMKLB (UniProt Q9ULI2)	inactive: 0.201	inactive: 0.079	inactive: -0.035	–	–	–	–	inactive: -0.029	–	–
RBM6 (UniProt P78332)	inactive: 0	inactive: 0.148	–	inactive: 0.013	inactive: -0.043	inactive: -0.183	–	inactive: 0.032	–	–
RBM4 (UniProt Q9BWF3)	inactive: -0.024	inactive: -0.04	inactive: -0.081	inactive: 0.06	inactive: -0.037	inactive: 0.021	inactive: -0.094	inactive: 0.021	–	–
RIOK3 (UniProt O14730)	inactive: -0.004	inactive: -0.031	inactive: 0.029	inactive: -0.026	inactive: 0.086	inactive: -0.011	inactive: -0.004	inactive: -0.019	–	–
RFC3 (UniProt P40938)	inactive: 0.029	inactive: 0.016	inactive: 0.163	inactive: 0.071	inactive: -0.042	inactive: 0.061	inactive: 0.067	inactive: -0.005	–	–
RBM48 isoform 2 (UniProt Q5RL73)	inactive: 0.081	inactive: 0.25	inactive: -0.069	inactive: -0.06	inactive: 0.152	–	inactive: 0.072	inactive: 0.041	–	–
RHOXF2 (UniProt Q9BQY4)	inactive: 0.027	inactive: 0.001	inactive: 0.073	inactive: 0.018	inactive: -0.045	inactive: -0.092	inactive: 0.009	inactive: 0.008	–	–
RFX5 (UniProt P48382)	inactive: 0.043	inactive: -0.267	inactive: 0.053	–	inactive: -0.069	–	inactive: -0.093	inactive: 0.031	–	–
RHEB (UniProt Q15382)	inactive: -0.001	inactive: 0.038	inactive: 0.096	inactive: -0.041	inactive: -0.097	inactive: -0.009	inactive: 0.042	inactive: -0.018	–	–
RBM39 (UniProt Q14498)	inactive: -0.043	inactive: -0.114	inactive: 0.033	inactive: -0.01	inactive: -0.052	inactive: 0.036	inactive: -0.032	inactive: -0.02	–	–
REEP4 (UniProt Q9H6H4)	inactive: -0.015	inactive: -0.148	inactive: -0.027	inactive: 0.02	inactive: 0.001	inactive: 0.02	active: -0.275	inactive: 0.06	–	–
RETREG2 (UniProt Q8NC44)	inactive: -0.054	inactive: -0.025	–	inactive: -0.196	–	inactive: -0.002	inactive: -0.044	inactive: -0.116	inactive: 0.061	inactive: -0.01
REL (UniProt Q04864)	inactive: 0.079	inactive: -0.04	inactive: 0.005	inactive: 0.02	inactive: -0.321	inactive: 0.028	inactive: -0.088	inactive: -0.003	–	–
RCOR1 (UniProt Q9UKL0)	inactive: 0.011	inactive: -0.033	inactive: 0.095	inactive: 0.071	inactive: -0.046	inactive: 0.041	inactive: -0.031	inactive: 0.001	–	–
RDH13 (UniProt Q8NBN7)	inactive: 0.04	inactive: -0.231	inactive: 0.161	inactive: -0.019	inactive: -0.08	inactive: 0.029	active: -0.322	inactive: -0.037	–	–

Target	log2 fold change [1]	log2 fold change (crizotinib)	log2 fold change [2]	log2 fold change [3]	log2 fold change (gandotinib)	log2 fold change [4]	log2 fold change (ispinesib)	log2 fold change (doramapimod)	log2 fold change (duvelisib)	log2 fold change (tozasertib)
RNF14 (UniProt Q9UBS8)	inactive: 0.034	inactive: 0.014	inactive: 0.081	inactive: -0.053	inactive: 0.001	inactive: 0.041	inactive: -0.032	inactive: -0.025	–	–
RDH10 (UniProt Q8IZV5)	inactive: -0.016	inactive: 0.087	inactive: 0.116	inactive: -0.011	inactive: -0.111	inactive: -0.003	inactive: 0.036	inactive: -0.016	–	–
RCC1 isoform 2 (UniProt P18754)	active: 0.418	inactive: -0.032	inactive: 0.13	inactive: -0.04	inactive: -0.1	inactive: 0.154	inactive: -0.007	inactive: -0.008	–	–
RNF139 (UniProt Q8WU17)	inactive: -0.094	inactive: 0.025	inactive: 0.021	–	inactive: 0.156	–	inactive: 0.032	inactive: 0	–	inactive: 0
RBM8A (UniProt Q9Y5S9)	inactive: 0.012	active: 0.287	inactive: 0.007	inactive: 0.025	inactive: 0.069	inactive: 0.025	inactive: 0.099	inactive: -0.078	–	–
RCOR3 isoform 3 (UniProt Q9P2K3)	inactive: -0.039	inactive: -0.117	–	inactive: -0.061	inactive: -0.015	inactive: 0.104	inactive: -0.065	inactive: -0.047	–	–
RMC1 (UniProt Q96DM3)	inactive: 0.021	active: -0.509	inactive: 0.061	inactive: -0.012	inactive: 0.027	inactive: 0.066	active: -0.254	inactive: 0.038	–	–
RECQL (UniProt P46063)	inactive: 0.031	inactive: 0.033	inactive: 0.112	inactive: -0.082	inactive: -0.057	inactive: 0.003	inactive: 0.056	inactive: -0.011	–	–
RNF138 (UniProt Q8WVD3)	inactive: 0.047	–	inactive: 0.05	inactive: -0.044	inactive: -0.054	inactive: 0.053	–	–	inactive: -0.016	inactive: 0.018
RCE1 (UniProt Q9Y256)	inactive: 0.043	–	inactive: 0.753	inactive: -0.01	inactive: -0.03	inactive: -0.003	inactive: 0.014	–	inactive: 0.046	inactive: 0.132
RHOA (UniProt P61586)	inactive: 0.028	inactive: 0.098	inactive: -0.317	inactive: -0.101	inactive: 0.022	inactive: -0.035	inactive: 0.219	inactive: -0.082	–	–
RCN3 (UniProt Q96D15)	inactive: -0.016	inactive: -0.028	inactive: -0.02	inactive: -0.041	inactive: 0.029	inactive: -0.058	inactive: -0.033	inactive: 0.092	–	–
RIC8B isoform 1 (UniProt Q9NVN3)	–	inactive: -0.063	inactive: -0.027	–	–	–	–	inactive: 0.006	–	–
REX1BD (UniProt Q96EN9)	–	–	–	inactive: 0.388	–	–	–	–	–	–
RFC1 (UniProt P35251)	inactive: 0.119	–	–	inactive: 0.214	inactive: -0.122	inactive: 0.212	inactive: -0.325	–	inactive: 0.031	inactive: -0.152

Single records (already shown). Order of values: log2 fold change [1]	log2 fold change (crizotinib)	log2 fold change [2]	log2 fold change [3]	log2 fold change (gandotinib)	log2 fold change [4]	log2 fold change (ispinesib)	log2 fold change (doramapimod)	log2 fold change (duvelisib)	log2 fold change (tozasertib)
RDH10 (UniProt Q8IZV5) is listed with inactive: -0.016	inactive: 0.087	inactive: 0.116	inactive: -0.011	inactive: -0.111	inactive: -0.003	inactive: 0.036	inactive: -0.016	–	–
RBM8A (UniProt Q9Y5S9) is listed with inactive: 0.012	active: 0.287	inactive: 0.007	inactive: 0.025	inactive: 0.069	inactive: 0.025	inactive: 0.099	inactive: -0.078	–	–
